Data published in patent publication US20250368962A1, “THREE-DIMENSIONAL HEPATIC TISSUE AND METHOD OF MANUFACTURING THE SAME” (TOPPAN HOLDINGS INC., priority 2023, published 2025).

What was measured:
[1] = system: spheroids consisting only of human hepatocytes (PXB cells); assay: ATP assay (CellTiter Glo 3D) viability after exposure to hepatotoxicity-inducing compounds, Test Example 6 Condition 2; type: cell-based; settings: calculated from cell viability (ATP), hepatocyte spheroids, exposure 168 hours, no bile acids, read-out: IC50 Condition 2 (spheroid)
[2] = system: three-dimensional hepatic tissue consisting only of human hepatocytes (PXB cells); assay: ATP assay (CellTiter Glo 3D) viability after exposure to hepatotoxicity-inducing compounds, Test Example 6 Condition 1; type: cell-based; settings: Hepatocyte, calculated from cell viability (ATP), exposure 168 hours from day 8 of culture, no bile acids, read-out: IC50 Condition 1 (present tissue)
Experimental: The resulting mixture was centrifuged at room temperature at 400×g for 2 minutes, the supernatant was removed, and the cells were resuspended in an HCM (product number “CC-3198”, manufactured by Lonza) containing 10 U/mL thrombin (product number “R4648”, manufactured by Sigma-Aldrich) and 1 v/v % endothelial cell growth supplement (ECGS) (product number “1052”, manufactured by Sciencell) to a cell density of 1.95×10^4 cells/2 μL to obtain a cell suspension.
2 μL of an HCM containing 5 mg/mL fibrinogen and 1 v/v % ECGS was added to a 48-well microplate (product number “3830-048”, manufactured by AGC Techno Glass) to form a droplet. The cell suspension was added to the interior of each droplet, and the 48-well microplate was then left to stand in an incubator for 40 minutes to form a fibrin gel in which the human hepatocytes were embedded. 0.5 mL of HCM containing 1 v/v % ECGS was added to each well in which the fibrin gel had been formed, and the cells were cultured under the conditions of 37° C. and 5% CO2. After the start of the culture, the medium was changed every two days.

CCCCc1oc2ccccc2c1C(=O)c1cc(I)c(OCCN(CC)CC)c(I)c1 [Amiodarone]
IC50 [1]: 52.2 µM
IC50 [2]: 32.3 µM
